Measured values published in publication PMC10135852.
No constants are given. Whether binding was seen depends on the method and setting. Binding seen in cells or lysates may run through a third protein. These calls come from enrichment with a bait or labelling near it, and not all partners need be listed.

T1: Mitochondrial inner membrane protein (Mitofilin/Mic60) (mouse (endogenous in mouse cardiac mitochondria)) (UniProt Q8CAQ8)
T1 sequence: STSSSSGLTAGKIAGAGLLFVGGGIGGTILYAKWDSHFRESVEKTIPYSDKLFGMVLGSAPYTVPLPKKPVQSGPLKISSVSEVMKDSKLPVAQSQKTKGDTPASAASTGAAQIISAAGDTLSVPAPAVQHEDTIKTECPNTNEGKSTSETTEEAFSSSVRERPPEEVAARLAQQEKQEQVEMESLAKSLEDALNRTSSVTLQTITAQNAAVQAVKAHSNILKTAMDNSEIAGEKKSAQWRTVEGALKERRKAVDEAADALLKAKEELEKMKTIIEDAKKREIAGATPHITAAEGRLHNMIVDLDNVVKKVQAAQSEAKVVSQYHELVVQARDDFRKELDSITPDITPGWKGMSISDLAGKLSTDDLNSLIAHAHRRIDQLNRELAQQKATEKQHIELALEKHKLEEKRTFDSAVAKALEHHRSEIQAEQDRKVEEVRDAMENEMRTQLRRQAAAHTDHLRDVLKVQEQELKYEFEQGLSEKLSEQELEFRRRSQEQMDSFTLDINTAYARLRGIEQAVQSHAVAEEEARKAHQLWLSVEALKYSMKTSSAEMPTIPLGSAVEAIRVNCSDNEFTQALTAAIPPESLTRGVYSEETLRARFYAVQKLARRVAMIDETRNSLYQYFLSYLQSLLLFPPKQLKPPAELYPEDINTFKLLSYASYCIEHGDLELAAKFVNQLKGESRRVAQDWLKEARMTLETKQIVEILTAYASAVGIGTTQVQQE


Biological target: T1, Mitochondrial inner membrane protein (Mitofilin/Mic60) (mouse (endogenous in mouse cardiac mitochondria))
Experiment: affinity purification with mass spectrometry; mitochondrial proteins from normal wild-type mouse hearts immunoprecipitated with an anti-Mitofilin antibody; eluate separated by SDS-PAGE, gel slices digested with trypsin, HPLC-ESI-MS/MS (Orbitrap Velos Pro); Mascot search of UniProt_mouse, Scaffold

Binder	binding
SAMM50 (protein, UniProt Q8BGH2 1-469) MGTVHARSLEPLPSSGTDFGALGEEAEFVEVEPEAKQEILENKDVVVQHVHFDGLGRTKDDIIICEIGEVFKAKNLIEVMRRSHEAREKLLRLGIFRQVDVLIDTCHGEDALPNGLDVTFEVTELRRLTGSYNTMVGNNEGSMVLGLKLPNLLGRAEKVTFQFSYGTKETSYGLSFFKPQPGNFERNFSVNLYKVTGQFPWSSLRETDRGVSAEYSFPLWKTSHTVKWEGVWRELGCLSRTASFAVRKESGHSLKSSLSHAMVIDSRNSSILPRRGALFKVNQELAGYTGGDVSFIKEDFELQLNKPLALDSVFSTSLWGGMLVPIGDKPSSIADRFYLGGPTSVRGFSMHSIGPQSEGDYLGGEAYWAGGLHLYTPLPFRPGQGGFGELFRTHFFLNAGNLCNLNYGEGPKAHIRKLAECIRWSYGAGVVLRLGNIARLELNYCIPMGVQGGDRICDGVQFGAGIRFL	binds
SLC25A42 (protein, UniProt Q8R0Y8 1-318) MGNGVQEGSVRLREDAEAVLAGAVSSKRDHRQVLSSLLSGALAGALAKTAVAPLDRTKIIFQVSSKRFSAKEAFRLLYFTYLNEGFLSLWRGNSATMVRVIPYAAIQFSAHEEYKRILGHYYGFRGEALPPWPRLLAGALAGTTAASLTYPLDLVRARMAVTPKEMYSNIFHVFIRISREEGLKTLYFGFTPTVLGVIPYAGLSFFTYESLKSLHREYSGRPQPYPFERMVFGACAGLIGQSASYPLDVVRRRMQTAGVTGHQHGSILSTLRSIVREEGAVRGLYKGLSMNWLKGPIAVGISFTTFDLMQILLRRLQS	binds
mitochondrial contact site and cristae organizing system (MICOS) subunit 25 (protein, UniProt Q91VN4 1-273) MGSAESAEARRVSFEMDEEERVRVLQGIRLSESVVNRMKDCSQPSAGEQLVPGFGPSSSAPVPTVPLPAISVPTVPAPTTPVPTAPSSSVRGLPGGTCKGPLTDVKVPSAESGGGLQSSAVKEDLKKFQQEQLAVQDEMVRVAKKEKEAAEKHLKASLPKKKASLTHEQQQSARLARELEDREAELSRRDTFYKEQQGRIQEKNAELYKLSSQQFHEAASKAESTIKPRRVEPVCSGLQAQILRCYRDHLHEVLLCSDLVKAYQHCVSTARKG	binds
mitochondrial contact site and cristae organizing system (MICOS) subunit 19 (protein, UniProt Q9CRB9 1-227) MGGTASTRRVTFEADENENITVVKGIRLSENVIDRMKESSPSGSKSQRYSSVYGASVSDEDLKRRVAEELALEQAKKESEHQRRLKQARDLERERAAANEQLTRAVLRERISSEEERMKAKHLARQLEEKDRVMRKQDAFYKEQLARLEERSSEFYKVTTEEYQKAAEEVEAKFKRYEYHPVCADLQTKILQCYRQNTQQTLSCSALASQYMHCVNHAKQSMLEKGG	binds
SLC25A20 (protein, UniProt Q9Z2Z6 1-301) MADEPKPISPFKNLLAGGFGGMCLVFVGHPLDTVKVRLQTQPPSLSGQPPMYSGTLDCFRKTLMREGITGLYRGMAAPIIGVTPMFAVCFFGFGLGKKLQQKSPEDELSYPQLFTAGMLSGVFTTGIMTPGERIKCLLQIQASSGENKYSGTLDCAKKLYQEFGIRGFYKGTVLTLMRDVPASGMYFMTYEWLKNLFTPEGKSVSDLSVPRILVAGGFAGIFNWAVAIPPDVLKSRFQTAPPGKYPNGFRDVLRELIREEGVTSLYKGFNAVMIRAFPANAACFLGFEIAMKFLNWIAPNL	binds
mitochondrial contact site and cristae organizing system (MICOS) subunit 26 (protein, UniProt Q9DCZ4 24-198) APKKDSPHKSYMKIDELSLYSVPEGQSKYVEEPRTQLEENISQLRHHCEPYTSFCQEIYSHTKPKVDHFVQWGVDNYNYLQNAPPGFFPRLGVIGFAGFVGLLFARGSKIKKLVYPPFFMGLGASVYYPQQAITIAQITGEKLYDWGLRGYIVIEDLWKQNFQKPGNVKNSPGNK	binds
SLC25A22 (protein, UniProt Q9D6M3 1-323) MADKQISLPAKLINGGIAGLIGVTCVFPIDLAKTRLQNQQNGQRMYASMSDCLIKTIRSEGYFGMYRGAAVNLTLVTPEKAIKLAANDFFRHQLSKDGQKLTLPKEMLAGCGAGTCQVIVTTPMEMLKIQLQDAGRIAAQRKILAAQAQLSAQGGAQPSVEAPAPPRPTATQLTRDLLRNHGIAGLYKGLGATLLRDVPFSIVYFPLFANLNQLGRPSSEEKSPFYVSFLAGCVAGSAAAVAVNPCDVVKTRLQSLERGVNEDTYSGFLDCARKIWRHEGPSAFLKGAYCRALVIAPLFGIAQVVYFLGIAESLLGLLQEPQA	binds

Further lines, results first:

binding	Binder
binds	SLC25A3 (protein, UniProt Q8VEM8 46-357) AVEEYSCEFGSMKYYALCGFGGVLSCGLTHTAVVPLDLVKCRMQVDPQKYKGIFNGFSITLKEDGVRGLAKGWAPTLIGYSMQGLCKFGFYEVFKALYSNILGEENTYLWRTSLYLASSASAEFFADIALAPMEAAKVRIQTQPGYANTLREAVPKMYKEEGLNAFYKGVAPLWMRQIPYTMMKFACFERTVEALYKFVVPKPRSECTKAEQLVVTFVAGYIAGVFCAIVSHPADSVVSVLNKEKGSTASQVLQRLGFRGVWKGLFARIIMIGTLTALQWFIYDSVKVYFRLPRPPPPEMPESLKKKLGLTE
binds	SLC25A11 (protein, UniProt Q9CR62 1-314) MAATASPGAGRMDGKPRTSPKSVKFLFGGLAGMGATVFVQPLDLVKNRMQLSGEGAKTREYKTSFHALTSILKTEGLKGIYTGLSAGLLRQATYTTTRLGIYTVLFERLTGADGTPPGFLLKALIGMTAGATGAFVGTPAEVALIRMTADGRLPADQRRGYKNVFNALVRIAREEGVPTLWRGCIPTMARAVVVNAAQLASYSQSKQFLLDSGYFSDNILCHFCASMISGLVTTAASMPVDIVKTRIQNMRMIDGKPEYKNGLDVLLKVVRYEGFFSLWKGFTPYYARLGPHTVLTFIFLEQMNKAYKRLFLSG
binds	SLC25A5 (protein, UniProt P51881 1-298) MTDAAVSFAKDFLAGGVAAAISKTAVAPIERVKLLLQVQHASKQITADKQYKGIIDCVVRIPKEQGVLSFWRGNLANVIRYFPTQALNFAFKDKYKQIFLGGVDKRTQFWRYFAGNLASGGAAGATSLCFVYPLDFARTRLAADVGKAGAEREFKGLGDCLVKIYKSDGIKGLYQGFNVSVQGIIIYRAAYFGIYDTAKGMLPDPKNTHIFISWMIAQSVTAVAGLTSYPFDTVRRRMMMQSGRKGTDIMYTGTLDCWRKIARDEGSKAFFKGAWSNVLRGMGGAFVLVLYDEIKKYT
binds	mitochondrial contact site and cristae organizing system (MICOS) subunit 27 (protein, UniProt Q78IK4 28-265) EEEPKKQLVRPDQLPIYTAPPLHSKYVEEQPGNLQRGFASIRTTTVYYIGWCKSIYLFMKNGVMDTVQFGKDAYVYLKNPPQDFLPKMGVITASGLAGLLSARKGSRFKKIAYPLGLATLGATVCYPAQSVIIAKITGKKAYATSQQIFQAIKSLWTQKSENESLPEPKEESKEGRSDEIHASLPDLKHSVSLPKELASATVIKSESTSGTTQFIPDPKLMDHGQSHPDDKDMYSTRS
